Laboratory results taken from US8318707B2 (priority 2006, dated 2012).
Where two headings read alike, the source gives them in different places.

System: mixed neural culture of hippocampus cells exposed to kainate
Assay: cells
Assay type: cell-based, rat
Settings: read-out: neuroprotection concentration (CN50)

| Structure (SMILES) | EC50 [nM] | EC50 (Rattus norvegicus) [nM] |
| --- | --- | --- |
| CC[C@H](CO)Nc1nc(NCc2ccccc2)c2ncn(C(C)C)c2n1 [(R)-roscovitine] | 650 | – |
| CC[C@@H](CO)Nc1nc(NCc2ccccc2)c2ncn(C(C)C)c2n1 [(S)-roscovitine] | – | 190 |
